Results are given in words; binding and its absence hold for the method and conditions named. Binding seen in cells or lysates may run through a third protein. Some results given as binding are weak or reduced against the parent protein; the word gives no strength.
Biological target: NF-kB p50 (untagged, transfected) (UniProt P25799)
Experiment: co-immunoprecipitation from co-transfected CHO-CD14 cells, anti-gp10 IP, immunoblot

Chains of the proteins cited; added tags and fusions are not shown. Lines headed by an entry give the natural chain unless they say otherwise; changes in a name come on top. Residues count along the entry.
UniProt P25799, residues 1-433: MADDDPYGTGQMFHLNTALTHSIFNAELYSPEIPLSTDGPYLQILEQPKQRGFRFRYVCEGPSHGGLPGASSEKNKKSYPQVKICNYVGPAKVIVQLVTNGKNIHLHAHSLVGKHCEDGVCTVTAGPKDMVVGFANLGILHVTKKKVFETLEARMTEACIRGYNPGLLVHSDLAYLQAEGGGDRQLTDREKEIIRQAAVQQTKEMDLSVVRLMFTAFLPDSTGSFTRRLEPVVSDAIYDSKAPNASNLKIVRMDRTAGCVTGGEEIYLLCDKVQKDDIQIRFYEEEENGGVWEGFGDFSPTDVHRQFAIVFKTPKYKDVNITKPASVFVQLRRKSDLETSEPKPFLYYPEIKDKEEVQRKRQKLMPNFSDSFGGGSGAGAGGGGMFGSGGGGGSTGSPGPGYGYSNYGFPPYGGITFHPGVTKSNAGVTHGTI

binding: binds
Substance: p105(sr), p105-based NF-kB super repressor (murine p105 with residues 356-498 and 800-971 deleted, N-terminal gp10 epitope tag) (from UniProt P25799 1-800)

Source: US20090099107A1
